According to patent US20250076312A1, “BIOMARKERS FOR THE TREATMENT OF INTERSTITIAL LUNG DISEASE” (Lung Therapeutics, LLC, priority 2021, published 2025):
Part of at least one peptide drawing is inferred or uncertain, most often the ends. Ends that are not written are not given here.

Experiments:
[1] = test system: sCD163; assay: sCD163 in supernatant of IPF lung macrophages; assay type: cell-based, human; details: 0.1 μM or 1 μM, 24 hours, compared to untreated, FIG. 13A
[2] = test system: fibrotic lung fibroblasts; details: cells such as fibrotic lung fibroblasts; cited from earlier work
[3] = test system: fibrosis; details: in vitro and in vivo models; Marudamuthu et al. 2019; cited from earlier work
[4] = test system: IPF epithelial cells; assay: 2D-DIGE / MALDI-TOF protein expression in treated IPF epithelial cells; assay type: cell-based, human
[5] = test system: IPF fibroblasts; assay: Reverse phase protein array in IPF fibroblasts; assay type: cell-based, human; details: IPFs
[6] = test system: total collagen in the lung; assay: Bleomycin aged mouse model of lung fibrosis, collagen in total lung homogenates; assay type: in vivo; details: BLM-treated aged mice; dry powder inhalation; compared to control peptide; FIG. 9
[7] = test system: PDGFRβ; assay: PDGFRβ protein expression in end-stage IPF PCLSs; assay type: cell-based, human; details: 10 µM or 100 μM; compared to untreated controls; FIG. 6A, 6B
[8] = test system: IL-11; assay: IL-11 in BALF of bleomycin-treated mice with acute lung injury; assay type: in vivo; details: compared to control peptide
[9] = test system: MYDGF; assay: MYDGF ELISA in epithelial cell supernatant; assay type: cell-based, human
[10] = test system: soluble RAGE; assay: Soluble RAGE ELISA in supernatant of IPF precision cut lung slices (PCLSs); assay type: cell-based, human
[11] = test system: MMP-2; assay: MMP-2 in supernatant of IPF lung macrophages; assay type: cell-based, human; details: 0.1 μM or 1 μM, 24 hours, compared to untreated, FIG. 13B
[12] = test system: soluble RAGE; assay: Soluble RAGE in plasma of healthy subjects following inhalation; assay type: in vivo, human; details: day 1 and 13, FIG. 5
[13] = test system: pSMAD2/3; assay: SMAD2/3 phosphorylation in IPF fibroblasts; assay type: cell-based, human; details: 10 μM, compared to 1% DMSO vehicle or DMEM controls, FIG. 7A
Protocol: IPF fibroblasts were treated with DMEM, 1% DMSO vehicle, CSP-7 (10 μM), Var55 (10 μM), pirfenidone (500 μM), or nintedanib (100 nM). SMAD2/3 phosphorylation was determined by Western blot 24 hours following treatment. […] IPF epithelial cells were treated with DMEM (control), Var55 (100 μM), nintedanib (100 nM), control peptide 1 (CP1, 100 μM), or control peptide 2 (CP2, 100 μM). SMAD2/3 phosphorylation was determined by Western blot 24 hours following treatment. Phosphorylated SMAD2/3 protein levels were determined by normalizing to total SMAD2/3 protein (FIG. 7A and FIG. 7B). Primary lung fibroblasts from IPF patients were treated with 1% DMSO vehicle, CSP-7 (10 μM), Var55 (10 μM), pirfenidone (500 μM), or nintedanib (100 nM). SMAD2/3 phosphorylation was measured in IPF fibroblasts by a multiplex assay or Western blot analysis and phosphorylated SMAD2/3 was normalized to total SMAD2/3 protein.

[14] = test system: IPF fibroblasts; assay: 2D-DIGE / MALDI-TOF protein expression in treated IPF fibroblasts; assay type: cell-based, human
[15] = test system: normal lung fibroblasts; assay: Reverse phase protein array in normal lung fibroblasts; assay type: cell-based, human; details: 10 μM, 24 hours, FIG. 11A
[16] = IPF Epi cells, 10 μM, 24 hours, versus DMSO vehicle
[17] = compared to untreated, DMSO or control peptide, FIG. 11B
[18] = IPF Fibs, 10 μM, 24 hours, versus DMSO vehicle

FTTFTVT [CSP-7, FTTFTVT]
sCD163 in the supernatant [1]: reduction
p53 protein levels [2]: increases
plasminogen activator inhibitor-1 (PAI-1) expression [2]: increases
urokinase plasminogen activator (uPA) and uPA receptor (uPAR) [2]: reduces
fibrosis [3]: effective in reducing fibrosis
CALR, Δ treatment/DMSO [4, 16]: −2.5 fold change
EIFA1, Δ treatment/DMSO [4, 16]: +1.7 fold change
MYDGF, Δ treatment/DMSO [4, 16]: +1.4 fold change
PPIA, Δ treatment/DMSO [4, 16]: +1.4 fold change
PROF1, Δ treatment/DMSO ([4]; IPF Epi cells, 10 μM, 24 hours, versus DMSO vehicle, two table lines): +1.4 fold change
fatty acid binding protein (FABP5), glutathione S-transferase P (GSTP-1) and 14-3-3 protein gamma regulation ([4]; treated epithelial cells): significantly regulated
phosphorylation of EGFR ([5]; 10 μM, 24 hours, FIG. 11A): reduced phosphorylation
phosphorylation of MEK1/2 ([5]; 10 μM, 24 hours, FIG. 11A): reduced phosphorylation
phosphorylation of Raptor ([5]; 10 μM, 24 hours, FIG. 11A): reduced phosphorylation
phosphorylation of SRC ([5]; 10 μM, 24 hours, FIG. 11A): reduced phosphorylation
activation of receptor tyrosine kinase signaling, metabolic signaling, invasion-associated markers and HDACs ([5]; array summary, FIG. 11C): reduces activation
p-PDGFRβ [5, 17]: suppression
p-mTOR [5, 17]: suppression
total collagen in the lung [6]: reduction
PDGFRβ protein expression [7]: decrease
IL-11 levels in the BALF ([8]; preventative group: three daily doses prior to bleomycin, FIG. 12A): reduction
IL-11 levels in the BALF ([8]; therapeutic group: three daily doses after bleomycin, FIG. 12B): reduction
MYDGF protein in epithelial cell supernatant ([9]; IPF epithelial cells, 10 μM or 100 μM, ELISA, FIG. 1A, 1B): increase
MYDGF protein expression ([9]; healthy controls): no change
soluble RAGE expression, concentration dependence ([10]; 0.001 μM to 100 μM, days 2 and 4 following treatment, FIG. 3C): dose-dependent increase
soluble RAGE in PCLS supernatant ([10]; 10 μM or 100 μM, compared to untreated or CP-treated controls, FIG. 3A, 3B): increase
MMP-2 in the supernatant [11]: reduction
soluble RAGE expression in plasma [12]: elevated
phosphorylation of SMAD2/3 normalized to total SMAD2/3 [13]: reduced phosphorylation
CALM2, Δ treatment/DMSO [14, 18]: +1.8 fold change
CALR, Δ treatment/DMSO [14, 18]: +1.4 fold change
EIFA1, Δ treatment/DMSO [14, 18]: +2.0 fold change
MYDGF, Δ treatment/DMSO [14, 18]: +1.5 fold change
galectin-1 (LGALS1), alpha-enolase (EnoA) and annexin V (ANXA5) regulation ([14]; treated IPF fibroblasts): significantly regulated
phosphorylation of EGFR, SRC, MEK1/2 and Raptor [15]: no effect
